Assay results published in the supplement of paper PMC3334620.
Whole data set: some 33,000 sequences, median “E-score (-0.5 to 0.5)” near -0.0014, cut for the highest 2% near 0.25. This is one part of the list.

Molecular target: T1, Cad1 (UniProt P24813)
T1 sequence: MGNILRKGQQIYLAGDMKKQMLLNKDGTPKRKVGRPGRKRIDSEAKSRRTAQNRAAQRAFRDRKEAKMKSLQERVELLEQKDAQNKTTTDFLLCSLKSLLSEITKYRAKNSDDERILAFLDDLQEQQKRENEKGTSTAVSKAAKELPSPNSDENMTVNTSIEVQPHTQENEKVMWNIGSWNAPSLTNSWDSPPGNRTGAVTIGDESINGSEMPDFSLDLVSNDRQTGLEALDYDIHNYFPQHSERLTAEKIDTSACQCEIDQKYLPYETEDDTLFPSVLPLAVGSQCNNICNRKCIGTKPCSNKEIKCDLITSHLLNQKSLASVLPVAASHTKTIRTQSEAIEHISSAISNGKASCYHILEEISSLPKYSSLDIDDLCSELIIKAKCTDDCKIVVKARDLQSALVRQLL
Assay: PBM E-score (8-mer binding enrichment) (E-score (-0.5 to 0.5)); higher = stronger / more preferred TF binding
Conditions: protein concentration: 100 nM; construct: GST-full length
Procedure, shortened: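 For each ungapped eight-base word taken together with its reverse complement, the Universal PBM Analysis Suite assigned an E-score. Binding data came from GST-tagged yeast transcription factors, applied at about 100-200 nM, on universal all-10-mer Agilent arrays made double-stranded by primer extension. Fluorescent anti-GST marked bound protein, and scans were normalised with masliner.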

Row | Sequence | PBM E-score
1 | ATTACCAC | 0.161
2 | AGGAAAAT | 0.0777
3 | AATATATC | 0.198
4 | GATTAAGA | 0.18
5 | AATACCAA | 0.214
6 | GGATCAGA | -0.077
7 | AACTAATC | 0.179
8 | CTATGTAC | 0.0085
9 | CGGCACCA | 0.0123
10 | GAGACGGC | 0.112
11 | CAGTGCCA | -0.223
12 | AGGTTTGG | -0.0844
13 | ACAAGTCC | -0.011
14 | ATCTAGAT | -0.0319
15 | GAATAACA | 0.252
16 | ATCAGTCA | 0.217
17 | ATGAACTC | 0.095
18 | CTCTTAGC | 0.00705
19 | GTGTACAA | 0.249
20 | AGGAGAAA | 0.0385
21 | CTCTATGA | -0.135
22 | AAATTGCG | 0.176
23 | AATAGACA | -0.0574
24 | GACCACTA | 0.0706
25 | ACCGGAGT | 0.014

Fetched one by one from the list above (three):
Row | Sequence | PBM E-score
9 | CGGCACCA | 0.0123
15 | GAATAACA | 0.252
3 | AATATATC | 0.198

The results go on.

Row | Sequence | PBM E-score
26 | GGCTTTAC | 0.0524
27 | GTCTAGTA | 0.0789
28 | ATGGCTGC | -0.0208
29 | CCTAATAC | 0.013
30 | ACTAGTTA | 0.0992
31 | ACGGAACG | 0.00014
32 | TCAGAAGA | -0.0837
33 | CGCAAACA | 0.232
34 | CTTATAAA | 0.275
35 | ACGACCGC | -0.171
36 | CCCCTTGC | -0.186
37 | CAGTGGCC | 0.103
38 | CAAATAGC | 0.0423
39 | CTCCTGTA | 0.0303
40 | GGTCGAAC | 0.0512
41 | GGTAGTAA | -0.0434
42 | AAGGTCGA | 0.0663
43 | CACCGTCA | 0.0866
44 | AGATTGCG | 0.0086
45 | GTATCTCA | 0.0906
46 | GCGCGCTA | 0.326
47 | GGAGAAAA | 0.0547
48 | AGATGACA | 0.139
49 | TCATCTAA | 0.0408
50 | CAGAGCTG | -0.03

Row | Sequence | PBM E-score
51 | AATCAGAC | 0.036
52 | CTGGGAAA | -0.00187
53 | AGTCATAA | 0.0277
54 | GCCGTAAA | 0.13
55 | CATCCACG | 0.0813
56 | CCGGGGCG | -0.221
57 | CAATCGTG | -0.0267
58 | GCCATGCA | 0.0386
59 | ATTCTTTA | -0.00088
60 | CCACAACG | -0.079
61 | TATCCGGA | 0.206
62 | CGCCTTTC | -0.144
63 | CGCGTCCA | 0.0682
64 | GGATACCC | -0.0106
65 | ATAAATGA | 0.0662
66 | AGACGAAA | 0.154
67 | CCAGCGCC | -0.213
68 | AATCCCAT | -0.111
69 | GATCCCGC | 0.0576
70 | CGAGATCG | 0.0639
71 | TAATTGAA | 0.0315
72 | CCGAGTCC | -0.0687
73 | AAGATGCA | 0.0982
74 | CGGGCAAC | -0.162
75 | GTACCACA | 0.0781

Row | Sequence | PBM E-score
76 | CATAATAG | 0.0957
77 | ACGCCTGG | 0.042
78 | GTTTTTTA | 0.055
79 | AGCTTCAT | 0.106
80 | CCATATCA | -0.00962
81 | CGACCCGC | 0.0365
82 | CACTCGGC | 0.099
83 | AGTCTTTC | -0.142
84 | CCTCGGGA | -0.0314
85 | AACTACTC | 0.112
86 | CCGGTAGG | -0.106
87 | GCTTCTCA | -0.17
88 | AAGCGAAT | 0.167
89 | AACTTTAC | 0.207
90 | ATGCACCA | -0.128
91 | GCACATCC | -0.168
92 | CGTTCCGA | 0.131
93 | ACCCTACG | -0.179
94 | AGTCATAC | -0.11
95 | ACCGGGAT | -0.01
96 | ACAAAGAT | 0.162
97 | AGGCTGTA | -0.0168
98 | CGTACCCC | 0.14
99 | GTCGCAAA | -0.0126
100 | ATCCTCTC | 0.0816

Row | Sequence | PBM E-score
101 | GGGAGGCA | -0.227
102 | AATTCCTA | 0.174
103 | CTAGGCAG | -0.145
104 | ACATTATC | 0.274
105 | CGACCAGC | -0.00892
106 | CCACAACA | -0.227
107 | ACATGGAA | 0.0464
108 | ACACCGGT | -0.0648
109 | GAGTCACA | -0.0761
110 | ACGGTACC | 0.0154
111 | ATGTACAA | -0.0603
112 | CTATGCAA | 0.0112
113 | CTCCAGTA | 0.0745
114 | ACAATATA | 0.17
115 | TAACCAGA | 0.0749
116 | ACTGCCAT | 0.0518
117 | CGCTCCTC | -0.292
118 | GCACGTAC | -0.0894
119 | ACACTTTC | 0.208
120 | ATACAAAA | 0.201
121 | ATGCGAGC | -0.168
122 | ACTCTGCT | -0.0461
123 | CCACACTC | 0.133
124 | CCCCCTCA | -0.427
125 | CATAGGGA | -0.0487

Row | Sequence | PBM E-score
126 | GCTGTGTA | -0.0713
127 | CTCTAAGC | 0.128
128 | ACAAAGAC | 0.0187
129 | CCGAATAG | 0.0011
130 | ACGCAGTG | -0.0997
131 | ACCCCAAC | -0.0236
132 | ACGTGGAT | 0.0134
133 | CATCAGTC | -0.0425
134 | ACCTAGGC | -0.201
135 | AAGCTCTC | -0.265
136 | AGTGGGGA | -0.274
137 | TTCCCGAA | 0.0119
138 | TCCTACGA | -0.118
139 | ACGCTATA | -0.0553
140 | ATATTTTG | 0.246
141 | ACTGTGTA | 0.106
142 | AGTTACTC | 0.175
143 | CCCGTATA | 0.0295
144 | ATGTCTCA | -0.01
145 | ATATATAA | 0.32
146 | AAATTGAC | 0.0948
147 | CCTTTTAG | -0.193
148 | GACGTAAC | 0.0222
149 | GTGTAGGA | -0.0617
150 | AGATTGAC | 0.0226

Laid out differently: results already given
Row,Sequence,PBM E-score
102,AATTCCTA,0.174
103,CTAGGCAG,-0.145
104,ACATTATC,0.274
105,CGACCAGC,-0.00892
106,CCACAACA,-0.227
107,ACATGGAA,0.0464
108,ACACCGGT,-0.0648
109,GAGTCACA,-0.0761
110,ACGGTACC,0.0154
111,ATGTACAA,-0.0603
112,CTATGCAA,0.0112
113,CTCCAGTA,0.0745
114,ACAATATA,0.17
115,TAACCAGA,0.0749
116,ACTGCCAT,0.0518
117,CGCTCCTC,-0.292
118,GCACGTAC,-0.0894
119,ACACTTTC,0.208
120,ATACAAAA,0.201
121,ATGCGAGC,-0.168
122,ACTCTGCT,-0.0461
123,CCACACTC,0.133
124,CCCCCTCA,-0.427
125,CATAGGGA,-0.0487
126,GCTGTGTA,-0.0713
127,CTCTAAGC,0.128
128,ACAAAGAC,0.0187
129,CCGAATAG,0.0011
130,ACGCAGTG,-0.0997
131,ACCCCAAC,-0.0236
132,ACGTGGAT,0.0134
133,CATCAGTC,-0.0425
134,ACCTAGGC,-0.201
135,AAGCTCTC,-0.265
136,AGTGGGGA,-0.274
137,TTCCCGAA,0.0119
138,TCCTACGA,-0.118
139,ACGCTATA,-0.0553
140,ATATTTTG,0.246
141,ACTGTGTA,0.106
142,AGTTACTC,0.175
143,CCCGTATA,0.0295
144,ATGTCTCA,-0.01
145,ATATATAA,0.32
146,AAATTGAC,0.0948
147,CCTTTTAG,-0.193
148,GACGTAAC,0.0222

(cont.)

Row | Sequence | PBM E-score
151 | AAATTATC | 0.246
152 | CGTTTGAC | -0.136
153 | AGCAGAAG | -0.0937
154 | ACAGGCGC | 0.018
155 | GAAGGATA | -0.0804
156 | GCGGGTTA | -0.0942
157 | GAGCGCAA | 0.115
158 | TCGTATCA | 0.142
159 | CGAGTCAC | -0.195
160 | CCGCGAGA | -0.102
161 | ATTTCTAG | 0.0493
162 | ACCCAGGA | -0.184
163 | CCCACATA | -0.179
164 | CAGTTCAA | 0.00708
165 | AACCAAAA | 0.0326
166 | GAACAAAA | 0.274
167 | TCTTTGAA | -0.0617
168 | CACTATCA | -0.0292
169 | TAGGCTAA | 0.0308
170 | GTAGTGAA | 0.0761
171 | CGCTCCGC | -0.0708
172 | CCAGCACA | -0.0411
